From PubChem BioAssay AID493014 (National Center for Advancing Translational Sciences (NCATS), 2011)
The other results are listed elsewhere or left out. Further columns of the screen follow, without active or inactive calls. The list favours compounds with an active or inconclusive main result. The note in brackets gives the kind of curve behind each potency; many fits are weak.

Assay: qHTS Assay to Find Inhibitors of Chronic Active B-Cell Receptor Signaling
Settings: ABC-DLBCL IkBa-CBG/CBR reporter, luminescence ratio (green luciferase fused to IkBa over red control in TMD8 lymphoma cells), 4 h
How it was run: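 Compounds up to 46 uM were incubated four hours with TMD8 cells whose green CBG68 luciferase is fused to IkappaBalpha; red CBR luminescence normalised the signal, and concentration-effect curves were fitted to fusion, red and ratio data.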

[1] = measured here: CBR red luminescence, cell number
[2] = measured here: IkBa-CBG green luminescence

| Structure (SMILES) | AC50 [1] | AC50 [2] |
| --- | --- | --- |
| CN1CCc2c(sc3c2c(=O)n(-c2ccccc2)c2nnc(SCc4ccc(Cl)cc4)n32)C1 | 5.62 µM [falling, single point] |  |
| NNc1nc(-c2ccccc2)cc(-c2ccccc2)n1 | 2.51 µM [falling, full curve] |  |
| O=C(Nc1nc(-c2ccc(Cl)s2)cs1)c1ccccc1 | 4.11 µM [falling, partial curve] |  |
| Oc1ccc(/C=C/c2ccc3cccc(O)c3n2)cc1Br | 10 µM [rising, partial curve] | 22.4 µM [falling, single point] |
| CCOc1ccc(C(C)=O)cc1N1C(=O)C2C3C=CC(O3)C2C1=O (configuration not stated) | 11.2 µM [falling, partial curve] |  |
| COc1ccc(C)cc1NC(=O)Nc1ccc2c(c1)CCC2 | 0.631 µM [rising, full curve] |  |
| CCN(CC)CCN1C(=O)C(=O)/C(=C(/O)c2cnn(-c3ccccc3)c2C)C1c1ccc(C)o1 (configuration not stated) | 5.62 µM [rising, single point] |  |
| CC(C)Cc1nnc(NC(=O)CSc2nc(O)c(-c3ccccc3)c(=O)[nH]2)s1 | 25.1 µM [falling, single point] |  |
| Cc1ccc(-n2c(C)cc(/C=C3\SC(=O)NC3=O)c2C)cc1 | 22.4 µM [rising, partial curve, poor fit] |  |
| O=C(c1ccc2nc(N3CCCCC3)sc2c1)N1CCN(c2ccccn2)CC1 | 29.1 µM [rising, single point] |  |
| O=C(CSc1ncnc2nc[nH]c12)Nc1nnc(SCc2ccc(Cl)c(Cl)c2)s1 | 35.5 µM [rising, single point] |  |
| O=C(Nc1cccc(NC(=O)c2cccs2)c1)c1ccc(Br)cc1 | 8.91 µM [falling, single point] |  |
| C[C@]12CCC(=O)C=C1CC[C@@H]1[C@@H]2[C@@H](O)C[C@@]2(C)[C@H]1CC[C@]2(O)C(=O)CO | 0.00411 µM [rising, full curve, poor fit] | 2.59 µM [falling, partial curve, poor fit] |
| COc1ccccc1NC(=O)COC(=O)/C=C/c1cccs1 | 0.461 µM [falling, partial curve, poor fit] |  |
| CCOc1ccccc1OCCn1nnc2ccccc21 | 16.4 µM [rising, partial curve, poor fit] |  |
| COc1cccc(Oc2cc(Cl)nc(N)n2)c1 | 10 µM [rising, partial curve, poor fit] |  |
| C/C(=N\NC(=O)c1ccccc1)c1c(C)[nH]n(-c2ccccc2)c1=O | 6.31 µM [falling, partial curve] |  |
| O=C(Nc1ncccc1O)c1ccc2c(c1)OCO2 | 0.146 µM [falling, full curve, poor fit] |  |
| CCNCc1cc(Cl)c(OCc2ccccc2)c(OCC)c1 | 10 µM [falling, partial curve] |  |
| CCC(C)NC(=O)C(CCSC)NC(=O)c1ccccc1 (configuration not stated) | 6.51 µM [falling, single point] |  |
| COc1ccc(C2Nc3ccccc3C(=O)N2c2ccccc2)cc1CSc1ccccn1 (configuration not stated) | 29.1 µM [falling, single point] |  |
| Cc1ccccc1/C=N\NC(=O)c1ccccc1-n1cccc1 | 35.5 µM [falling, single point] |  |

Reprinted at random: two records from the list

| Structure (SMILES) | AC50 [1] | AC50 [2] |
| --- | --- | --- |
| C[C@]12CCC(=O)C=C1CC[C@@H]1[C@@H]2[C@@H](O)C[C@@]2(C)[C@H]1CC[C@]2(O)C(=O)CO | 0.00411 µM [rising, full curve, poor fit] | 2.59 µM [falling, partial curve, poor fit] |
| CCC(C)NC(=O)C(CCSC)NC(=O)c1ccccc1 (configuration not stated) | 6.51 µM [falling, single point] |  |

Following part

| Structure (SMILES) | AC50 [1] | AC50 [2] |
| --- | --- | --- |
| COc1ccc2nc(C)cc(SCC(=O)N3CCCCC3)c2c1 | 25.1 µM [falling, single point] |  |
| COc1ccc(Br)cc1C(=O)Nc1cccc(C)c1C | 29.1 µM [rising, single point] |  |
| COc1c(OC(C)=O)c(=O)n2c3ccccc3c3ccnc1c32 | 0.731 µM [falling, full curve, poor fit] |  |
| CC(=O)Nc1cccc(NC(=O)CSc2nc(C3CC3)nc3ccccc23)c1 | 14.1 µM [falling, partial curve] |  |
| O=C1CC(c2ccc3c(c2)OCCO3)Oc2ccc([N+](=O)[O-])cc21 (configuration not stated) | 3.98 µM [falling, full curve] |  |
| Cc1cccc(OCc2n(CC(=O)OC3CC(C)CCC3C(C)C)c3ccccc3[n+]2C)c1 (configuration not stated) | 35.5 µM [falling, single point] |  |
| N#Cc1c(N2C(=O)Nc3ccccc3N2O)sc2c1CCCC2 | 12.6 µM [falling, partial curve, poor fit] |  |
| COc1cccc(N2C(=O)CC(N3CCc4ccccc43)C2=O)c1 (configuration not stated) | 10.3 µM [falling, partial curve] |  |
| O=C(N/N=C/c1c[nH]c2ccccc12)c1cc(-c2ccccc2)n[nH]1 | 18.4 µM [falling, partial curve] |  |
| O=C(Nc1ccc2c(c1)OCO2)C(c1ccccc1)N1CCC2(CC1)OCCO2 (configuration not stated) | 4.11 µM [rising, full curve] |  |
| O=C(NCC1CCCO1)c1ccc(CS(=O)(=O)c2ccc(Br)cc2)o1 (configuration not stated) | 3.66 µM [rising, full curve, poor fit] |  |
| O=C1OCCC1Sc1nnc(-c2ccc(Cl)cc2Cl)o1 (configuration not stated) | 22.4 µM [falling, single point] |  |
| O=C(Nc1ccc2[nH]ncc2c1)c1ccccc1Cl | 4.47 µM [falling, partial curve] |  |
| CCCS(=O)(=O)C/C(N)=N/OC(=O)c1ccc(Cl)cc1 | 20 µM [rising, partial curve, poor fit] |  |
| O=C(O)/C=C/C(=O)NNC(=O)c1cccc(Br)c1 | 29.1 µM [falling, single point] |  |
| C[C@H](Nc1ncnc2sc3c(c12)CCC3)C(=O)O | 3.55 µM [falling, single point] |  |
| Cc1c(/C=N\NC(=O)c2ccc(F)cc2)cnn1C | 6.51 µM [falling, partial curve] |  |
| O=C1Nc2ccccc2C(O)(C(=O)NCc2ccco2)N1c1ccc(Cl)c(Cl)c1 (configuration not stated) | 1.12 µM [falling, partial curve, poor fit] |  |
| Clc1ccc(-c2cc(COc3ccccc3)on2)cc1 | 0.355 µM [rising, full curve, poor fit] |  |
| CC1CCN(C2=C(NS(=O)(=O)c3ccc(Cl)cc3)C(=O)c3ccccc3C2=O)CC1 | 13 µM [rising, partial curve, poor fit] |  |
| CCOC(=O)C1CCN(c2ncnc3c2cnn3-c2ccccc2)CC1 | 7.31 µM [falling, partial curve, poor fit] |  |
| Cc1cccn2c(=O)c3cc(C(=O)NC4CCCCC4)c(=N)n(CCN4CCOCC4)c3nc12 | 0.1 µM [rising, full curve, poor fit] |  |

Look-ups from above.
In AC50 [1], CCCS(=O)(=O)C/C(N)=N/OC(=O)c1ccc(Cl)cc1 reads 20 µM [rising, partial curve, poor fit]
In AC50 [1], Cc1cccn2c(=O)c3cc(C(=O)NC4CCCCC4)c(=N)n(CCN4CCOCC4)c3nc12 reads 0.1 µM [rising, full curve, poor fit]

Later entries.

| Structure (SMILES) | AC50 [1] | AC50 [2] |
| --- | --- | --- |
| O=C(Nc1nc(-c2cccc3ccccc23)cs1)c1cnccn1 | 1.84 µM [rising, full curve, poor fit] |  |
| C=CCSc1nnc(-c2ccc(Cl)cc2Cl)o1 | 0.708 µM [rising, full curve, poor fit] |  |
| COc1cccc2[nH]c3c(=O)n(CCN(C)C)cnc3c12 | 10 µM [falling, partial curve, poor fit] |  |
| COc1ccccc1NC1SC(=O)N(c2ccccc2)C1=O (configuration not stated) | 0.224 µM [falling, full curve, poor fit] |  |
| CCOC(=O)c1c(C)[nH]c(C(=O)COC(=O)c2ccc([N+](=O)[O-])o2)c1C | 20.6 µM [rising, partial curve, poor fit] |  |
| Cc1ccsc1/C=N\NC(=O)c1ccc2c(c1)OCO2 | 4.47 µM [falling, partial curve] |  |
| COc1ccc(C(C)(C)C)cc1NC(=O)c1ccoc1C | 3.66 µM [rising, partial curve, poor fit] |  |
| CCc1cc2c(=O)c(-c3nc4ccccc4n3C)c(C)oc2c(CN(CC)CC)c1O | 20 µM [falling, single point] |  |
| N#Cc1ccccc1NC(=S)NC(=O)c1cccs1 | 15.8 µM [falling, single point] |  |
| Nc1c(C(=O)O)cnc2c(-c3ccc(Cl)cc3)cnn12 | 7.08 µM [rising, partial curve] |  |
| COc1ccccc1-c1noc(-c2ccccc2)n1 | 18.4 µM [falling, single point] |  |
| COc1cc(C2C(=O)N(C3CCCCCC3)CC(=O)N2CCC2=CCCCC2)ccc1OC(C)C (configuration not stated) | 15.8 µM [rising, partial curve] |  |
| COCCCNc1nc2nonc2nc1N(C)CC1CCCN1C (configuration not stated) | 8.91 µM [rising, partial curve, poor fit] |  |
| CNCCCC1c2ccccc2C=Cc2ccccc21 | 2.24 µM [falling, partial curve, poor fit] |  |
| C=CCN(C(=O)c1cc(C)cc(C)c1)C1(C(=O)Nc2ccccc2)CCN(C(C)C)CC1 | 35.5 µM [falling, partial curve, poor fit] |  |
| CCc1cccc(NC(=O)c2cnn(-c3ccccc3)c2C)c1 | 25.1 µM [falling, single point] |  |
| C=C(C)c1cccc(C(C)(C)NC(=O)Nc2ncccn2)c1 | 1.3 µM [falling, full curve, poor fit] |  |
| CCO[C@@H]1OC(C(=O)N2CCOCC2)=C[C@H](c2cn(C(C)=O)c3ccccc23)[C@H]1CCCO | 20 µM [rising, single point] |  |
| COc1ccccc1C(=O)N1CCN(CCNC(=O)C(=O)Nc2ccc(Br)c(C)c2)CC1 | 17.8 µM [falling, partial curve, poor fit] |  |
| CCCN(CC(=O)Nc1cc(Cl)cc(Cl)c1)CC(=O)Nc1ccc(F)c(F)c1F | 23.1 µM [falling, single point] |  |
| Cn1cccc1/C=N/NC(=O)c1ccco1 | 11.2 µM [falling, single point] |  |
